This assay addresses SetA(1-644) (Legionella pneumophila) (UniProt Q5ZU30). Briefly: SEC; […]; 20 mM Tris-HCl (pH 7.5) plus 100 mM NaCl or 300 mM NaCl; […]; both purified.

No constants are given. Whether binding was seen depends on the method and setting.

B1: SetA(1-644) (protein, UniProt Q5ZU30 1-644)
chain: MYKIYSYLGWRIDMKTENLPQAGQEAQIDKKIHFIWVGHIMPQKNIQVVSEWAEKNPGYETIIWVDKKIAPAKELDLFILDMKSKGITVKDINEEGVCRDSIRHELDQESPNYGMVSDMLRLNILAAEGGIYLDSDILCSAPFPDEIYAPFGFLLSPWSQGANNTLCNDIILCSKGNQIIQQLADAIEQSYIARDSFEFTHEYASMKETKGERIAKTLGVTGPGFLFHQLKKMGILNDKSEMEAIHWELQDQRYLIDGSVKEPDYFYVPQNNTNDASWVPSIKRPGIENMSFQERLENAVQLIAFDIQKTGLFNLDHYANELKVKQNSWCIAAETSPELKPDSYLLIRPRDKTGEWTLYYVDEDKKLNPVTLPVIKGAIKLSEVSDPLRKFHTLLSQVSDPVNPTAHELKQIGRALIELKPRQDEWHCKNKWSGAEEIAQELWQRITSNETLRAQIKQCFTQFESLKPRVAELGLTRASGAGTEVEAHESTVKEQEIISQNTVGEEGTKEKNSVQLASENSSDEKIKTAHDLIDEIIQDVIQLDGKLGLLGGNTRQLEDGRVINIPNGAAMIFDDYKKYKQGELTAESALESMIKIAKLSNQLNRHTFFNQRQPETGQFYKKVAAIDLQTTIAAEYDNNHGLRI
For B1, the binding result is “no binding”.

The values above are taken from publication PMC7251119.
